Reference: PubChem BioAssay AID504764 (Drosophila RNAi Screening Center, 2011)
Screen: 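Knock-downs that raise or lower a Notch target reporter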 (primary screen). System: Drosophila Kc167 cells. Knock-down reagent: long dsRNA against Drosophila genes. Timing: about 5 days (4 days dsRNA, then 24 h after transfection). Challenge: transfection of constitutively active membrane-tethered Notch lacking the extracellular domain, read 24 h later. Measurement: 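Firefly luciferase from an E(spl)m3 reporter with active Notch, plus control-promoter and uninduced reporter wells for normalisation; unnormalised counts, duplicate wells a and b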. Reading the numbers: induced reporter light, run 1, well a and induced reporter light, run 1, well b: higher = more light from the Notch target reporter with active Notch; control promoter light, run 1, well a and control promoter light, run 1, well b: higher = more light from the viral control promoter (cell number, transfection, viability); uninduced reporter light, run 1, well a: higher = more light from the Notch target reporter without active Notch. Hit rule: 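Hit if the duplicate-averaged log2 ratio of induced to control-promoter light gives a plate-wise z beyond ±2, or induced to uninduced beyond ±1.8; weak-control or discordant-duplicate wells dropped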. Calls: active = modifier hit (raised or lowered Notch signal); inactive = not a hit.
In all, the deposit lists about 22,000 reagents; below is a random part of those with a known target gene and a result. Over the whole deposit, 403 (1.9%) are marked active. 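Unnormalised raw counts per well; ratio z-scores behind the hit calls and whether each hit raises or lowers signal are not deposited.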 Reagents against one gene are numbered here. A plus sign joins genes that one reagent is predicted to hit. The record does not give: the amount of reagent.

| Gene | dsRNA no. | induced reporter light, run 1, well a | induced reporter light, run 1, well b | control promoter light, run 1, well a | control promoter light, run 1, well b | uninduced reporter light, run 1, well a | Call |
| --- | --- | --- | --- | --- | --- | --- | --- |
| intr | 1 | 1.61e5 | 1.57e5 | 1.98e5 | 2.44e5 | 12295 | inactive |
| CG4945 | 1 | 1.17e5 | 1.13e5 | 2.26e5 | 2.59e5 | 8675 | inactive |
| Cht4 | 1 | 44245 | 51615 | 72355 | 82955 | 2925 | inactive |
| emc | 1 | 26345 | 23415 | 33875 | 32760 | 6240 | inactive |
| Corp | 1 | 1.91e5 | 1.67e5 | 2.11e5 | 2.09e5 | 11810 | inactive |
| CG42662 + CG30080 | 1 | 1.86e5 | 2.11e5 | 2.66e5 | 3.94e5 | 19380 | inactive |
| luna | 1 | 1.73e5 | 1.64e5 | 2.14e5 | 2.72e5 | 15765 | inactive |
| luna | 2 | 8830 | 7605 | 10885 | 10010 | 2660 | inactive |
| luna | 3 | 1.90e5 | 1.62e5 | 2.19e5 | 2.13e5 | 14210 | inactive |
| Gr58c | 1 | 40515 | 39145 | 42285 | 32790 | 1705 | inactive |
| Sgt1 | 1 | 1.30e5 | 1.22e5 | 1.12e5 | 1.07e5 | 9990 | inactive |
| EMC4 | 1 | 1.09e5 | 92660 | 75435 | 65600 | 5485 | inactive |
| CCKLR-17D1 | 1 | 88740 | 1.03e5 | 1.13e5 | 1.37e5 | 11245 | inactive |
| CCKLR-17D1 | 2 | 73075 | 1.00e5 | 99975 | 1.09e5 | 12770 | inactive |
| CCKLR-17D1 | 3 | 86375 | 95710 | 1.03e5 | 87770 | 10505 | inactive |
| ClC-b | 1 | 1.37e5 | 99055 | 1.31e5 | 1.43e5 | 8955 | inactive |
| CG17470 | 1 | 1.76e5 | 1.47e5 | 1.33e5 | 1.66e5 | 11175 | inactive |
| Nubp2 | 1 | 1.49e5 | 1.39e5 | 1.36e5 | 1.30e5 | 8628 | inactive |
| CG13177 | 1 | 83165 | 1.06e5 | 1.34e5 | 1.28e5 | 9355 | inactive |
| Prosbeta5R2 | 1 | 64865 | 53950 | 61710 | 59600 | 6590 | inactive |
| CG10914 | 1 | 32065 | 31765 | 35485 | 37155 | 3020 | inactive |
| CG5913 | 1 | 1.81e5 | 1.83e5 | 1.96e5 | 2.13e5 | 13425 | inactive |
| Ssadh | 1 | 1.78e5 | 2.18e5 | 2.12e5 | 1.87e5 | 11340 | inactive |
| CG11099 | 1 | 1.24e5 | 1.01e5 | 1.74e5 | 1.53e5 | 9795 | inactive |
| Impbeta11 | 1 | 88525 | 89535 | 1.13e5 | 1.39e5 | 9575 | inactive |
| CG13793 | 1 | 98685 | 1.54e5 | 1.06e5 | 1.58e5 | 22760 | inactive |
| CG1513 | 1 | 76080 | 81190 | 92490 | 86985 | 5030 | inactive |
| CG1513 | 2 | 1.53e5 | 1.73e5 | 2.27e5 | 1.77e5 | 11278 | inactive |
| CG1513 | 3 | 1.46e5 | 1.56e5 | 2.25e5 | 2.02e5 | 14875 | inactive |
| CG4438 | 1 | 1.02e5 | 1.31e5 | 61745 | 82740 | 17200 | inactive |
| MtnA | 1 | – | – | – | – | – | inactive |
| CG32706 + CG6999 | 1 | 91095 | 78905 | 1.04e5 | 1.03e5 | 7025 | inactive |
| CG12115 | 1 | 76615 | 73775 | 86930 | 88830 | 6980 | inactive |
| CG11263 | 1 | 1.43e5 | 1.08e5 | 2.16e5 | 1.30e5 | 6895 | inactive |
| HIPP1 | 1 | 1.32e5 | 1.12e5 | 99615 | 1.08e5 | 10255 | inactive |
| Ltn1 | 1 | 1.34e5 | 1.43e5 | 1.01e5 | 1.19e5 | 10225 | inactive |
| Ltn1 | 2 | 1.89e5 | 1.15e5 | 1.33e5 | 96395 | 11945 | inactive |
| hec | 1 | 1.07e5 | 1.08e5 | 1.34e5 | 1.88e5 | 8805 | inactive |
| CG13130 (retired record) | 1 | 75460 | 1.11e5 | 69530 | 75125 | 14170 | inactive |
| CG15286 | 1 | 71135 | 94695 | 68540 | 73130 | 8990 | inactive |
| CG15731 | 1 | 51625 | 52710 | 58260 | 46930 | 4565 | inactive |
| CG2921 | 1 | 1.78e5 | 1.68e5 | 1.51e5 | 1.54e5 | 14595 | inactive |
| alien | 1 | 1.49e5 | 1.29e5 | 78045 | 85530 | 20460 | active |
| Atf3 | 1 | 13265 | 14200 | 23475 | 23742 | 4232 | inactive |
| CG2608 | 1 | 1.39e5 | 1.40e5 | 1.07e5 | 1.16e5 | 13185 | inactive |
| CG6441 | 1 | 1.41e5 | 1.36e5 | 1.68e5 | 1.60e5 | 7538 | inactive |
| Dera | 1 | 1.37e5 | 1.58e5 | 1.54e5 | 1.59e5 | 12075 | inactive |
| Dera | 2 | – | – | – | – | – | inactive |
| CG8086 | 1 | 64025 | 82440 | 77685 | 70815 | 7065 | inactive |
| CG8086 | 2 | 1.77e5 | 1.97e5 | 1.13e5 | 1.34e5 | 21805 | inactive |
| Bdbt | 1 | 1.68e5 | 1.70e5 | 1.74e5 | 1.98e5 | 12675 | inactive |
| Tat | 1 | 99070 | 1.13e5 | 1.24e5 | 79560 | 11770 | inactive |
| apt | 1 | 1.32e5 | 1.44e5 | 35565 | 45460 | 33675 | inactive |
| CG5172 | 1 | 1.08e5 | 1.17e5 | 1.97e5 | 1.78e5 | 11405 | inactive |
| CG14641 | 1 | 61880 | 58830 | 27335 | 28665 | 5255 | inactive |
| Polr3E | 1 | 1.16e5 | 1.03e5 | 82615 | 90055 | 6955 | inactive |
| Klp61F | 1 | 64300 | 67210 | 79275 | 77365 | 8455 | inactive |
| Cep164 | 1 | 71590 | 69685 | 98085 | 73425 | 12075 | inactive |
| CG12963 | 1 | 1.05e5 | 1.09e5 | 1.28e5 | 1.24e5 | 8490 | inactive |
| Prp31 | 1 | 81380 | 69015 | 52625 | 59525 | 4535 | inactive |
| Obp99b | 1 | 77820 | 88560 | 1.18e5 | 1.29e5 | 8300 | inactive |
| CG30026 | 1 | 2.55e5 | 2.06e5 | 2.71e5 | 3.12e5 | 26180 | inactive |
| betaNACtes4 | 1 | 71935 | 68605 | 1.01e5 | 93245 | 12950 | inactive |
| Prosbeta2R1 | 1 | 1.24e5 | 1.38e5 | 2.25e5 | 2.95e5 | 10075 | inactive |

7 entries from above, ordered by “induced reporter light, run 1, well b”, ascending:
| Gene | dsRNA no. | induced reporter light, run 1, well a | induced reporter light, run 1, well b | control promoter light, run 1, well a | control promoter light, run 1, well b | uninduced reporter light, run 1, well a | Call |
| --- | --- | --- | --- | --- | --- | --- | --- |
| CG14641 | 1 | 61880 | 58830 | 27335 | 28665 | 5255 | inactive |
| Klp61F | 1 | 64300 | 67210 | 79275 | 77365 | 8455 | inactive |
| Prp31 | 1 | 81380 | 69015 | 52625 | 59525 | 4535 | inactive |
| Cep164 | 1 | 71590 | 69685 | 98085 | 73425 | 12075 | inactive |
| Obp99b | 1 | 77820 | 88560 | 1.18e5 | 1.29e5 | 8300 | inactive |
| Polr3E | 1 | 1.16e5 | 1.03e5 | 82615 | 90055 | 6955 | inactive |
| CG12963 | 1 | 1.05e5 | 1.09e5 | 1.28e5 | 1.24e5 | 8490 | inactive |
